Test results reported in the supplement of paper PMC7024190.
Some of the results follow. Repeats in this data set agree poorly, so a single value says little.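 A first-round screen of about ten thousand compounds sought those raising reporter output, using human embryonic kidney cells briefly transfected with a plasmid carrying a Renilla luciferase gene driven by the HSV-TK promoter.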

Each molecule was assayed on HEK 293FT (assay: log relative Renilla luciferase luminescence (reporter expression vs reference, reference not stated) (log (base not stated)); higher = higher recombinant reporter expression). Conditions: 10 µM; time after transfection 48 h.
Procedure: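 HEK 293FT cells transiently transfected with pRL-TK (Renilla luciferase) were treated with compounds at 10 uM and luminescence was read about 42 h later. Values are log relative Renilla luminescence (log base and reference not stated). Single-pass screen; 2080 natural products library.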

| SMILES | log |
| --- | --- |
| Oc1cc(O)cc(/C=C/c2ccccc2)c1 [Pinosylvin] | -0.127 |
| CC(=O)O[C@@H]1C2=C(C)[C@@H](OC(C)=O)[C@H](OC(=O)c3ccccc3)[C@@](O)([C@@H](O)[C@@H]3[C@]4(OC(C)=O)CO[C@@H]4C[C@H](OC(C)=O)[C@@]3(C)[C@H]1OC(C)=O)C2(C)C [14beta-Benzoyloxy-2-deacetylbaccatin VI] | 0.041 |
| COc1c2occc2c(OC)c2c(=O)cc(C)oc12 [Khellin] | 0.00611 |
| CC1=CC(=O)CC(C)(C)[C@H]1CC[C@@H](C)O[C@@H]1O[C@H](CO)[C@@H](O)[C@H](O)[C@H]1O [Blumenol C glucoside] | -0.327 |
| C=C1CC[C@H]2C(C)(C)[C@@H](O)CC[C@]2(C)[C@H]1CC/C(C)=C/C(=O)O [Alepterolic acid] | 0.0208 |
| COc1cc(O)cc(/C=C/c2ccccc2)c1 [(E)-3-Hydroxy-5-methoxystilbene] | 0.111 |
| C=C(CO)[C@@H]1CC[C@@]2(C)CCC[C@@](C)(O)[C@@H]2C1 [Ilicol] | -0.0825 |
| O=c1oc2c(O)c(O)cc3c(=O)oc4c(O)c(O)cc1c4c23 [Ellagic acid] | 0.0838 |
| COC(=O)C1C(O)CCC2CN3CCc4c([nH]c5ccccc45)C3CC21 (stereo not drawn) [beta-Yohimbine] | 0.14 |
| C=C1C(OC(C)=O)C(OC(C)=O)C(OC(C)=O)C(C)(C)C=CC(C)C(OC(C)=O)C2(O)CC(C)(OC(C)=O)C(OC(=O)c3ccccc3)C2C1OC(C)=O (stereo not given) | -0.146 |
| C=C1CC[C@H]2C(C)(C)[C@@H](OC(C)=O)CC[C@]2(C)[C@H]1CC/C(C)=C/C(=O)O [3-Acetoxy-8(17),13E-labdadien-15-oic acid] | -0.309 |
| CCCCCCCCC/C=C/CC/C=C/[C@@H](O)C(CO[C@H]1O[C@H](CO)[C@@H](O)[C@H](O)[C@H]1O)NC(=O)[C@H](O)CCCCCCCCCCCCCC (stereo not given in full) [Soyacerebroside I] | -0.0367 |
| CCCCCCCCCCCCCCCC(=O)O[C@H]1CC[C@@]2(C)C(=CC[C@H]3[C@@H]4CC[C@H]([C@H](C)CC[C@@H](CC)C(C)C)[C@@]4(C)CC[C@@H]32)C1 [Sitosteryl palmitate] | -0.341 |
| CC1=CC[C@@H](OC(=O)c2ccccc2)[C@H]2[C@@]1(C)[C@@H](OC(=O)c1cccnc1)[C@H](OC(=O)c1ccccc1)[C@]1(C)O[C@]3(CC[C@]21C)COC(=O)C3 [Scutebata G] | 0.0607 |
| C/C(=C\C(=O)O)CC[C@@]1(O)[C@@H](C)CC[C@H]2C(C)(C)CCC[C@@]21C [9-Hydroxy-13E-labden-15-oic acid] | -0.24 |
| CC(C)(O)[C@@H]1CC[C@@](C)([C@H]2CC[C@]3(C)[C@@H]2CC[C@@H]2[C@@]4(C)CC[C@@H](O)C(C)(C)[C@@H]4CC[C@]23C)O1 [Cabraleadiol] | 0.0581 |
| CC1=CC(=O)CC(C)(C)[C@@]1(O)/C=C/[C@H](O)CO [Cucumegastigmane I] | -0.0169 |
| COc1cc(O)cc(CCc2ccccc2)c1 [Dihydropinosylvin methyl ether] | 0.0759 |
| C=C(CCC(O)C(C)(C)O)C1CCC2(C)C1CCC1C3(C)CCC(O)C(C)(C)C3CCC12C (stereo not given) [Dammar-20(21)-en-3,24,25-triol] | -0.00908 |
| C[C@@]1(CO)C[C@@H](O)C[C@@]2(C)[C@@H]3CC[C@](C)([C@@H](O)CO)C=C3CC[C@H]12 [Kirenol] | -0.0264 |

Two consecutive entries from above:

| SMILES | log |
| --- | --- |
| Oc1cc(O)cc(/C=C/c2ccccc2)c1 [Pinosylvin] | -0.127 |
| CC(=O)O[C@@H]1C2=C(C)[C@@H](OC(C)=O)[C@H](OC(=O)c3ccccc3)[C@@](O)([C@@H](O)[C@@H]3[C@]4(OC(C)=O)CO[C@@H]4C[C@H](OC(C)=O)[C@@]3(C)[C@H]1OC(C)=O)C2(C)C [14beta-Benzoyloxy-2-deacetylbaccatin VI] | 0.041 |

Later entries:

| SMILES | log |
| --- | --- |
| C[C@H]1[C@H](C)CC[C@]2(C(=O)O)CC[C@]3(C)C(=CC[C@@H]4[C@@]5(C)C[C@@H](O)[C@@H](O)[C@](C)(CO)[C@@H]5CC[C@]43C)[C@H]12 [2,3,24-Trihydroxy-12-ursen-28-oic acid] | -0.594 |
| CC(C)[C@H]1CC[C@@H]2[C@]1(C)CC[C@]1(C)[C@H]3CC=C4[C@@H](CC[C@H](O)C4(C)C)[C@]3(C)CC[C@@]21C [Simiarenol] | -0.204 |
| O=C(O)C[C@H]1CCC(=O)[C@@H]1C/C=C\CCO [12-Hydroxyjasmonic acid] | 0.11 |
| CC=Cc1ccc2c(c1)C(C)C(c1ccc(OC(C)=O)cc1)O2 (single isomer, unassigned; (+)) [(+)-Conocarpan acetate] | -0.181 |
| CC1(C)[C@@H](O)CC[C@]2(C)C3=C(CC[C@@H]12)[C@@]1(C)CC[C@@]2(C)CC[C@@](C)(C(=O)O)C[C@H]2[C@]1(C)CC3 [Bryonolic acid] | -0.0329 |
| CC(=O)OC1CCC2(C)C3CCC4C(C)(CCC5C(C)(C)C(OC(C)=O)CCC45C)CC3=CCC2C1(C)C (stereo not given) [Serratenediol diacetate] | 0.769 |
| O=c1ccc2nccc3c4ccccc4n1c23 [Canthin-6-one] | -0.204 |
| COc1cc(OC)c2ccc(=O)oc2c1OCC=C(C)C [Artanin] | -0.21 |
| COc1cc(O)c(C(=O)/C=C/c2ccccc2)c(O)c1 [Pinostrobin chalcone] | -0.0495 |
| COc1cc(-c2oc3cc(OC(C)=O)c(OC)c(OC(C)=O)c3c(=O)c2OC)ccc1OC(C)=O [Jaceidin triacetate] | -0.184 |
| CCOC(/C=C/c1ccccc1)=C1\C(=O)C=C(OC)C1=O [Ethyllucidone] | 0.0912 |
| COc1c(OC)c(O)c2c(=O)cc(-c3ccc(O)cc3)oc2c1O [Isothymusin] | -0.14 |
| CC[C@H](CC[C@@H](C)[C@H]1CC[C@H]2[C@@H]3C[C@@H](O)C4=C[C@@H](O)CC[C@]4(C)[C@H]3CC[C@]12C)C(C)C [Stigmast-4-ene-3,6-diol] | 0.185 |
| CCCCCCCCCCCCCCCCCCCCCCOC(=O)/C=C/c1ccc(O)c(O)c1 [Docosyl caffeate] | -0.341 |
| O=C(CCCCCCCCCCCCCCCCCCCCCCCCCO)OCC(O)CO (stereo not given) [Glycerol 1-(26-hydroxyhexacosanoate)] | -0.253 |
| CC1=CC(C)(C)N=C(C)C1=O [2,4,6,6-Tetramethyl-3(6H)-pyridinone] | -0.0315 |
| COc1c(O)cc2c(=O)oc3c(OC)c(O)cc4c(=O)oc1c2c34 [3,3'-Di-O-methylellagic acid] | 0.143 |
| CC(=O)O[C@@H]1C[C@@H](C)[C@](O)(CCC2=CC(=O)OC2)[C@@]2(C)CCCC(C)(C)[C@H]12 [Vitexilactone] | -0.205 |
| COC(=O)C1=CCC[C@@H]2[C@@](C)(CCC3=CC(=O)OC3)[C@H](C)CC[C@@]12C [Clerodermic acid methyl ester] | 0.085 |
| C[C@H]1[C@H](C)CC[C@]2(C(=O)O)CC[C@]3(C(=O)O)C(=CC[C@@H]4[C@@]5(C)CC[C@H](O[C@@H]6O[C@H](C)[C@@H](O)[C@H](O)[C@H]6O)C(C)(C)[C@@H]5CC[C@]43C)[C@H]12 [Quinovin] | -0.2 |
